Earlier results as cited in patent US11154520B2, “Combination therapy for metastatic cancer” (General Oncology, Inc., priority 2015, dated 2021).
For at least one compound, name, drawing or mass did not settle the structure.

Test system: metastatic melanoma
Settings: patients with metastatic melanoma

## CCCS(=O)(=O)Nc1ccc(F)c(C(=O)c2c[nH]c3ncc(-c4ccc(Cl)cc4)cc23)c1F [Vemurafenib]
  CR rate: 1%
